# Values from PubChem BioAssay AID504744 (Drosophila RNAi Screening Center, 2011)
# Aim: 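Find genes whose loss alters insulin-driven dAkt phosphorylation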 (primary screen)
# Cell system: Drosophila Kc167 cells
# Reagents: long dsRNA against Drosophila genes, 250 ng dsRNA per well of a 384-well plate
# Timing: 3 days of knock-down, then overnight serum-free starvation before stimulation
# Challenge: bovine insulin at 387 nM for 10 minutes after 12 h without serum
# Detection: 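Per-well phospho-dAkt level from an in-cell fluorescent antibody stain, divided by a DNA-dye signal; log2 residuals turned into z-scores that take cell number into account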
# Call rule: 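Under insulin, a gene counts as a hit if the average z-score of two replicates lies above 2.5 or below -2.5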
# The screen tested about 23,000 reagents; below is an unselected part of those that have a named target and a result. Over the whole deposit, 98 (0.43%) were called active. 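Only hit calls are given; the phospho-dAkt signals, z-scores and hit direction were not deposited.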 Names joined by + are all predicted targets of the reagent.
Target gene,dsRNA,outcome
CG14932,DRSC02414,inactive
bs (blistered),DRSC04676,inactive
CR31958 (pseudo),DRSC00282,inactive
CR31958 (pseudo),DRSC21858,inactive
Iris,DRSC00663,inactive
CG15471,DRSC18054,inactive
CG31388,DRSC15254,inactive
CG5302 (retired record),DRSC15764,inactive
CG5302 (retired record),DRSC15765,inactive
CG5302 (retired record),DRSC22671,inactive
Pur-alpha (Purine-rich binding protein-alpha),DRSC17166,inactive
mib1 (mind bomb 1),DRSC10550,inactive
CG10939,DRSC06019,inactive
CG10939,DRSC21734,inactive
CG10737,DRSC05999,inactive
CG4017,DRSC02733,inactive
BaraA1 + BaraA2,DRSC05417,inactive
CG12679,DRSC20493,inactive
Pvf2 (PDGF- and VEGF-related factor 2),DRSC00968,inactive
Pvf2 (PDGF- and VEGF-related factor 2),DRSC02283,inactive
CG34281,DRSC14807,inactive
Acox3 (Acyl-CoA oxidase 3),DRSC03251,inactive
CG4455,DRSC01983,inactive
CG4455,DRSC21684,inactive
CG30423,DRSC04013,inactive
CG3397,DRSC15487,inactive
fsd (fates-shifted),DRSC06166,inactive
robl22E,DRSC00289,inactive
dpr15 (defective proboscis extension response 15),DRSC12891,inactive
dpr15 (defective proboscis extension response 15),DRSC14187,inactive
dpr15 (defective proboscis extension response 15),DRSC14188,inactive
AANATL2 (Arylalkylamine N-acetyltransferase-like 2),DRSC03227,active
CG13295,DRSC09969,inactive
HtrA2 (HTRA2-related serine protease),DRSC16425,inactive
CG9876,DRSC04586,inactive
CG3708,DRSC18646,inactive
Spn28Db (Serpin 28Db),DRSC22033,inactive
Ass + CG31286,DRSC12493,inactive
Wee1 (Wee1 kinase),DRSC03635,inactive
CG2291,DRSC06836,inactive
CG32302,DRSC08340,inactive
Cad88C (Cadherin 88C),DRSC15486,inactive
CG31294,DRSC22217,inactive
MICU3 (Mitochondrial calcium uptake 3),DRSC13381,inactive
MICU3 (Mitochondrial calcium uptake 3),DRSC15613,inactive
Or92a (Odorant receptor 92a),DRSC16771,inactive
CG11406,DRSC04010,inactive
CG11406,DRSC04108,inactive
CG4960,DRSC15684,inactive
Pdxk (Pyridoxal kinase),DRSC10419,inactive
Smn (survival motor neuron),DRSC10223,inactive
enok (enoki mushroom),DRSC04096,inactive
CG34028,DRSC17614,inactive
MED14 (Mediator complex subunit 14),DRSC08235,inactive
CG32022,DRSC09678,inactive
RpL36 (Ribosomal protein L36),DRSC18708,inactive
woc (without children),DRSC15928,inactive
CG31681,DRSC00107,inactive
Irp-1A (Iron regulatory protein 1A),DRSC16719,inactive
CG32095,DRSC22615,inactive
CG14502,DRSC06473,inactive
CG31296,DRSC13092,inactive
Nup205 (Nucleoporin 205kD),DRSC19432,inactive
ND-B14 (NADH dehydrogenase (ubiquinone) B14 subunit),DRSC07029,inactive
Phf7 (PHD finger protein 7),DRSC20692,inactive
tbrd-3,DRSC04295,inactive
CR18166 (pseudo),DRSC17260,inactive
CR18166 (pseudo),DRSC18147,inactive
JMJD7 (Jumonji domain containing 7),DRSC09703,inactive
Hira,DRSC18672,inactive
GlyRS (Glycyl-tRNA synthetase),DRSC10711,inactive
mRpS33 (mitochondrial ribosomal protein S33),DRSC14239,inactive
Synj (Synaptojanin),DRSC04526,inactive
r-l (rudimentary-like),DRSC17042,inactive
r-l (rudimentary-like),DRSC22784,inactive
CG12547,DRSC07759,inactive
Mo25,DRSC11224,inactive
Duba (Deubiquitinating enzyme A),DRSC10582,inactive
retinin,DRSC09940,inactive
laf (labial associated factor),DRSC12246,inactive
Ser7,DRSC18201,inactive
CG5107,DRSC15716,inactive
Obp46a (Odorant-binding protein 46a),DRSC06220,inactive
otp (orthopedia),DRSC04050,inactive
otp (orthopedia),DRSC04707,inactive
CG33232 (retired record),DRSC08187,inactive
CG33232 (retired record),DRSC08495,inactive
CG42813 + CG42814,DRSC15939,inactive
CG42813 + CG42814,DRSC15940,inactive
CG13807,DRSC08342,inactive
CG2225,DRSC03722,inactive
CG2225,DRSC03723,inactive
CG7365,DRSC10824,inactive
FIG4 (FIG4 phosphoinositide 5-phosphatase),DRSC00515,inactive
CG4424,DRSC15576,inactive
CG5961,DRSC15927,inactive
Ggamma1 (G protein gamma subunit 1),DRSC07435,inactive
cal1 (chromosome alignment defect 1),DRSC15725,inactive
Svil (Supervillin),DRSC07981,inactive
Svil (Supervillin),DRSC08296,inactive
Svil (Supervillin),DRSC08332,inactive
Svil (Supervillin),DRSC08333,inactive
Svil (Supervillin),DRSC08494,inactive
CG6867,DRSC20013,inactive
CG12935,DRSC06248,inactive
Orc2 (Origin recognition complex subunit 2),DRSC16776,inactive
CG11779 + CG5835,DRSC15886,inactive
CG2861,DRSC18229,inactive
gzl (godzilla E3 ubiquitin protein ligase),DRSC12517,inactive
CG10669,DRSC14261,inactive
Gs1 (Glutamine synthetase 1),DRSC00753,inactive
CG32563,DRSC19934,inactive
NKCC (sodium potassium chloride cotransporter),DRSC12140,inactive
NKCC (sodium potassium chloride cotransporter),DRSC12311,inactive
Myo28B1 (Myosin 28B1),DRSC03375,inactive
"DCTN2-p50 (Dynactin 2, p50 subunit)",DRSC07132,inactive
Pph13 (PvuII-PstI homology 13),DRSC00775,inactive
CycE (Cyclin E),DRSC03295,inactive
CycE (Cyclin E),DRSC03296,inactive
Osi9 (Osiris 9),DRSC12278,inactive
CG42562,DRSC06453,inactive
CG5577,DRSC10519,inactive
CG31386 (retired record),DRSC22769,inactive
Der-2 (Derlin-2),DRSC15021,inactive
CG14401,DRSC02385,inactive
CG14401,DRSC21710,inactive
OstDelta (Oligosaccharide transferase Delta subunit),DRSC06980,inactive
Ance-2,DRSC02539,inactive
Ten-a (Tenascin accessory),DRSC18924,inactive
Ten-a (Tenascin accessory),DRSC19496,inactive
Ten-a (Tenascin accessory),DRSC19700,inactive
Ten-a (Tenascin accessory),DRSC19793,inactive
Ten-a (Tenascin accessory),DRSC19864,inactive
Ten-a (Tenascin accessory),DRSC19865,inactive
Ten-a (Tenascin accessory),DRSC20290,inactive
Ten-a (Tenascin accessory),DRSC21461,inactive
CG6006,DRSC13137,inactive
CG6006,DRSC15946,inactive
CG18231,DRSC10307,inactive
Bap111 (Brahma associated protein 111kD),DRSC18419,inactive
GstE11 (Glutathione S transferase E11),DRSC06926,inactive
Ephrin,DRSC17165,inactive
mex1 (midgut expression 1),DRSC11368,inactive
Elp3 (Elongator complex protein 3),DRSC00448,inactive
CG33552,DRSC01551,inactive
CG31544 (retired record),DRSC12466,inactive
CG8260,DRSC20098,inactive
CG32436,DRSC11683,inactive
CG32436,DRSC11796,inactive
mtg (mind the gap),DRSC16256,inactive
CG12672,DRSC19482,inactive
CG5235,DRSC10494,inactive
CG13449,DRSC09996,inactive
CG13229,DRSC06349,inactive
CG45105,DRSC15002,inactive
CG45105,DRSC15833,inactive
CG12133,DRSC06108,inactive
AlaRS (Alanyl-tRNA synthetase),DRSC01851,inactive
cno (canoe),DRSC12054,inactive
cno (canoe),DRSC12374,inactive
alpha-Est1 (alpha-Esterase-1),DRSC12612,inactive
CG4757,DRSC14130,inactive
SerRS (Seryl-tRNA synthetase),DRSC00496,inactive
PolE1 (DNA polymerase epsilon subunit 1),DRSC16112,inactive
CG14020,DRSC02350,inactive
Rm62,DRSC12365,inactive
san (separation anxiety),DRSC07695,inactive
CG5662,DRSC19957,inactive
LSm7 (Like Sm 7),DRSC02251,inactive
"DCTN1-p150 (Dynactin 1, p150 subunit)",DRSC11175,inactive
Bcs1 (Bcs1 chaperone),DRSC02789,inactive
alpha-Est9 (alpha-Esterase-9),DRSC12621,inactive
CG32650,DRSC19899,inactive
Vha16-2 (Vacuolar H[+] ATPase 16kD subunit 2),DRSC10873,inactive
CG9993,DRSC04599,inactive
"E(spl)mbeta-HLH (Enhancer of split mbeta, helix-loop-helix)",DRSC16697,inactive
CG17601,DRSC20639,inactive
Prosalpha6 (Proteasome alpha6 subunit),DRSC03401,inactive
MtnC (Metallothionein C),DRSC22879,inactive
CG15601,DRSC19670,inactive
PolQ (DNA polymerase theta),DRSC17006,inactive
amrt (amaretto),DRSC19378,inactive
eys (eyes shut),DRSC00113,inactive
eys (eyes shut),DRSC00402,inactive
eys (eyes shut),DRSC00403,inactive
eys (eyes shut),DRSC00695,inactive
Tssk (Testis-specific serine/threonine kinase),DRSC14784,inactive
CG15408,DRSC00423,inactive
chb (chromosome bows),DRSC11469,inactive
Met75Ca + Met75Cb,DRSC09549,inactive
Met75Ca + Met75Cb,DRSC11221,inactive
CG14720,DRSC14942,inactive
CG30054,DRSC05354,inactive
CG14204,DRSC19559,inactive
mys (myospheroid),DRSC18799,inactive
ato (atonal),DRSC16904,inactive
org-1 (optomotor-blind-related-gene-1),DRSC18810,inactive
NimA (Nimrod A),DRSC01353,inactive
NimA (Nimrod A),DRSC22170,inactive
Dronc (Death regulator Nedd2-like caspase),DRSC11231,inactive
